Results: PubChem BioAssay AID743255 (National Center for Advancing Translational Sciences (NCATS), 2014)
Hit rate of the full screen: of about 390,000 compounds, about 910 (0.23%) were called active. This list was built around the results that the source calls inconclusive (neither active nor inactive); the mix of calls is not that of the screen. Calls come from the whole dose curve; as a rule, active = well fitted inhibition curve with a large enough effect; inconclusive = small, poorly fitted or top-dose-only effect; inactive = no such curve, though single readings can be large or run the other way. Potencies beside an inconclusive call are fits to weak or partial responses and may not hold up.

Sequences of proteins named here, by UniProt entry; tags and fusion partners are left off. A change or cut given only in a name is not applied to a line headed by its entry.
UniProt O94782: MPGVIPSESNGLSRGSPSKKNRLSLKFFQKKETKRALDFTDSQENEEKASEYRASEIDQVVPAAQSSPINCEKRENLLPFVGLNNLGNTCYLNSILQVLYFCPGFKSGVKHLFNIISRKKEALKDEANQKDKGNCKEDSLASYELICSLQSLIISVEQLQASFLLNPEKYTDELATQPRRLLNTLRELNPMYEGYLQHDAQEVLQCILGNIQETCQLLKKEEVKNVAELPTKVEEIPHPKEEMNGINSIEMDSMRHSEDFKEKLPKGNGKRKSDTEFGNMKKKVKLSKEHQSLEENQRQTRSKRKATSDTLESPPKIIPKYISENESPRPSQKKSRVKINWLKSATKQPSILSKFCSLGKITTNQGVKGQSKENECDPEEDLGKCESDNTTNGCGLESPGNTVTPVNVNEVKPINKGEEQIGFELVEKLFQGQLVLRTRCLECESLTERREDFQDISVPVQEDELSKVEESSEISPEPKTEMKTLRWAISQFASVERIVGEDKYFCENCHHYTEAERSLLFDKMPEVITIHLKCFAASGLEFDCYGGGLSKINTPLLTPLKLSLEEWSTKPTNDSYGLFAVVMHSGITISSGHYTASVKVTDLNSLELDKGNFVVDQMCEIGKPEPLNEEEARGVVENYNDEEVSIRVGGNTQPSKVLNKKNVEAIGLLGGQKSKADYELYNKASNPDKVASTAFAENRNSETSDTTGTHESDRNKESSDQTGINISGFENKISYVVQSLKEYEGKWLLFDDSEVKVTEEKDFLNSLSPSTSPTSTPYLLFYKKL

Molecular target: Ubiquitin carboxyl-terminal hydrolase 1 (Homo sapiens) (UniProt O94782)
Test: Inhibitors of USP1/UAF1: Primary Screen; note: nearly all actives have a fitted effect of over 60% in size
Settings: recombinant USP1/UAF1, Ub-Rhodamine cleavage fluorescence; activity change, negative = inhibition: at 57.1 µM (top of the series)
How it was run: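 1 nM enzyme complex + cpd, 15 min RT; start with Ub-Rho 150nM final; kinetic fluorescence ex 480/em 540, 6 reads q60 s. Buffer 50mM HEPES pH 7.8, 0.5mM EDTA, 0.1 mg/ml BSA, 1mM TCEP, 0.01% Tween-20.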
% is set by controls: 0 for no effect and ±100 for the full control effect; potency is the fitted concentration of half-maximal effect.

SMILES	Potency	activity change, negative = inhibition
CC(O)C(=O)N/N=C/c1ccccc1C(=O)O (stereo unspecified)	inconclusive: 7.94 µM [inhibitor, single point]	–
Oc1ccc(N=Cc2c(O)ccc3ccccc23)cc1	inconclusive: 35.5 µM [inhibitor, partial curve]	–
CCCC(=O)Oc1c(Sc2ccc(Cl)cc2)c(C)nn1-c1ccccc1	inconclusive: 0.562 µM [inhibitor, full curve, poor fit]	–
Cn1ncc(Cl)c(Oc2ccc(Cl)cc2)c1=O	–	inactive: -0.355%
Nc1c(Cl)cc2c(c1Oc1ccccc1)C(=O)c1ccccc1C2=O	inconclusive: 31.6 µM [inhibitor, partial curve]	–
CCCNC(=O)CSc1nc(COc2ccccc2)nc2ccccc12	inconclusive: 1.41 µM [inhibitor, partial curve]	–
CC(=O)c1c(C)[nH]c(C(=O)N2CCN(c3ccc(F)cc3)CC2)c1C	–	inactive: -9.57%
CC(C)c1ccc(/C=N/N2CCN(c3ccccn3)CC2)cc1	inconclusive: 39.8 µM [inhibitor, partial curve, poor fit]	–
Cc1ccc(Cl)cc1NC(=O)Cn1c(=O)oc2cc(S(=O)(=O)N3CCCCCC3)ccc21	–	inactive: -1.18%
Cc1ccc(C)c(Nc2cc(C)nc(-c3ccccc3O)n2)c1	inconclusive: 14.1 µM [inhibitor, partial curve]	–
C[C@@H]1CCCCO[C@@H](CN(C)CC2CC2)[C@@H](C)CN([C@H](C)CO)C(=O)c2cc(N(C)C)ccc2O1	inconclusive: 0.631 µM [inhibitor, full curve, poor fit]	–
Cc1nc(NC(=O)CSc2nc3cccnc3n2C2CCCCC2)sc1C	inconclusive: 44.7 µM [inhibitor, partial curve]	–
FC(F)(F)c1ccc(C2=Nc3ccccc3NC(c3cccs3)=N2)cc1	inconclusive: 4.47 µM [inhibitor, single point]	–
NS(=O)(=O)c1ccc(CCNC(=O)C(c2ccccc2)c2ccccc2)cc1	inconclusive: 10 µM [inhibitor, partial curve]	–
CCCNS(=O)(=O)c1ccc(CCC(=O)N2CCN(c3ccc(OC)cc3)CC2)cc1	inconclusive: 25.1 µM [inhibitor, partial curve]	–
CN(C)CCN1CCc2ccccc21	–	inactive: -22.9%
Nc1c(Cl)cc(C2=NCCn3c2c2ccc(C(F)(F)F)cc2[n+]3[O-])cc1Cl	–	inactive: -10.3%
COCCNC(=O)c1c(N)n(CCC2=CCCCC2)c2nc3ccccc3nc12	inconclusive: 35.5 µM [inhibitor, partial curve]	–
CN1C(=O)/C(=C/c2cc(N=Nc3ccccc3)ccc2O)SC1=S	inconclusive: 31.6 µM [inhibitor, partial curve]	–
CC(=O)c1cccc(Nc2c3c(nc4nc(-c5cccs5)nn24)CCCC3)c1	inconclusive: 17.8 µM [inhibitor, partial curve]	–
Cc1cc(C)c(S(=O)(=O)NCCCn2ccnc2)cc1C	inconclusive: 0.708 µM [inhibitor, full curve, poor fit]	–

SMILES	Potency	activity change, negative = inhibition
CC(=O)N(C1=C(Cl)C(=O)c2ccccc2C1=O)C1CCCCC1	inconclusive: 22.4 µM [inhibitor, partial curve]	–
O=C(Nc1ccnn1C1CCN(Cc2ccc(OC(F)F)cc2)CC1)C1CCCC1	–	inactive: -10.8%
c1ccc(C2Nc3cccc4cccc(c34)N2)cc1	inconclusive: 44.7 µM [inhibitor, partial curve, poor fit]	–
COc1ccc(CNC(=O)c2ccc(Sc3ccc(Cl)cc3)c(NC(C)=O)c2)c(OC)c1	inconclusive: 0.355 µM [inhibitor, full curve]	–
Cc1cc(SCC(=O)Nc2ccc3[nH]c(=O)[nH]c3c2)nc2ccccc12	inconclusive: 6.31 µM [inhibitor, full curve, poor fit]	–
N#Cc1c(-c2cccc(Br)c2)cc(-c2ccco2)[nH]c1=O	inconclusive: 35.5 µM [inhibitor, partial curve]	–
COC(=O)C1=C(C(=O)OC)[C@@H]2N(Cc3ccccc3)c3ccccc3[C@@]23C[C@@H](C(=O)OC)N(C(C)=O)C3=N1	inconclusive: 1 µM [inhibitor, full curve, poor fit]	–
CCCCN1CC(COCc2ccccc2)Oc2cccc(OCCN3C(=O)[C@@H]4[C@H](C3=O)C3C=C[C@H]4C3)c2S1(=O)=O (stereo partly specified)	–	inactive: -29.3%
CCN1CCN(Cc2ccc(NC(=O)c3cc(NC(=O)C(=O)c4c[nH]c5ccccc45)cc(OC)c3)cc2C(F)(F)F)CC1	inactive	–
Cc1cc([N+](=O)[O-])ccc1NC(=S)NC1CCCC1	inconclusive: 44.7 µM [inhibitor, partial curve]	–
Cc1ccc2nc(NCCCO)nc(-c3ccccc3)c2c1	–	inactive: -18.6%
CCCN(C(=O)COC(=O)CCC(=O)c1ccccc1)c1c(N)n(Cc2ccccc2)c(=O)[nH]c1=O	inconclusive: 7.08 µM [inhibitor, partial curve, poor fit]	–
COc1ccc(Cl)cc1N(CC(=O)N1CCCC1)S(=O)(=O)c1ccc(C)cc1	inconclusive: 6.31 µM [inhibitor, single point]	–
CCN(CC)C(=O)CSc1nnc2[nH]c(=O)cc(C)n12	–	inactive: -18.1%
Cc1cc(C)c(Nc2cc(S(=O)(=O)O)c(N)c3c2C(=O)c2ccccc2C3=O)c(C)c1	inconclusive: 35.5 µM [inhibitor, partial curve, poor fit]	–
CC(=O)[C@@H]1[C@@H]2C(=O)N(Cc3ccccc3)C(=O)[C@@H]2C2c3ccccc3C=CN21 (stereo partly specified)	active: 17.8 µM	–
COc1ccc(C2=C(N3CCN(c4cc(Cl)ccc4C)CC3)c3ccccc3C2=O)cc1	inconclusive: 3.98 µM [inhibitor, full curve, poor fit]	–
COc1ccc(CCNC(=O)Cn2c(-c3cccs3)cc3cc(F)ccc32)cc1OC	inconclusive: 44.7 µM [inhibitor, partial curve]	–
COc1ccccc1C1SCCN1S(=O)(=O)c1ccccc1 (stereo unspecified)	inconclusive: 0.251 µM [inhibitor, full curve, poor fit]	–
O=C(/C=C/c1ccccc1)NC(=S)Nc1cccnc1	inconclusive: 7.94 µM [inhibitor, single point]	–

Reprinted at random: 3 records from the list.
SMILES	Potency	activity change, negative = inhibition
Cc1cc(SCC(=O)Nc2ccc3[nH]c(=O)[nH]c3c2)nc2ccccc12	inconclusive: 6.31 µM [inhibitor, full curve, poor fit]	–
N#Cc1c(-c2cccc(Br)c2)cc(-c2ccco2)[nH]c1=O	inconclusive: 35.5 µM [inhibitor, partial curve]	–
COc1ccc(CNC(=O)c2ccc(Sc3ccc(Cl)cc3)c(NC(C)=O)c2)c(OC)c1	inconclusive: 0.355 µM [inhibitor, full curve]	–
